Test results taken from PMC4483769.
These are yes or no findings as the source states them, for the method shown. In cells and extracts the contact can be indirect. Some entries that bind do so weakly or less than the wild type. Where a sequence is shown, tags or fusion partners need not be part of it.

By UniProt entry, the sequences of proteins in these tests, tags left out.
UniProt P61006: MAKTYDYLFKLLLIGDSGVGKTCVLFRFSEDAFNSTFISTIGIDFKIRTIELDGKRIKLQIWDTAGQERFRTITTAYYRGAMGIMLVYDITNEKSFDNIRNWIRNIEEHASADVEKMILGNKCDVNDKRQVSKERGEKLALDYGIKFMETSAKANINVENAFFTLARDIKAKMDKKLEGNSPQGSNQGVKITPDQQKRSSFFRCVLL
UniProt P60953: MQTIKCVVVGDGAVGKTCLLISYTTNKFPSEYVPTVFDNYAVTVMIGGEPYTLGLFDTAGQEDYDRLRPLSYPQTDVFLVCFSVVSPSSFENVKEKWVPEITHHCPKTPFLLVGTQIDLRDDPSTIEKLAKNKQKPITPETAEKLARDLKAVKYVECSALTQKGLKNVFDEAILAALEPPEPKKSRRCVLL

T1: 3×Flag-GPR177 (UniProt Q5T9L3)
T1 sequence: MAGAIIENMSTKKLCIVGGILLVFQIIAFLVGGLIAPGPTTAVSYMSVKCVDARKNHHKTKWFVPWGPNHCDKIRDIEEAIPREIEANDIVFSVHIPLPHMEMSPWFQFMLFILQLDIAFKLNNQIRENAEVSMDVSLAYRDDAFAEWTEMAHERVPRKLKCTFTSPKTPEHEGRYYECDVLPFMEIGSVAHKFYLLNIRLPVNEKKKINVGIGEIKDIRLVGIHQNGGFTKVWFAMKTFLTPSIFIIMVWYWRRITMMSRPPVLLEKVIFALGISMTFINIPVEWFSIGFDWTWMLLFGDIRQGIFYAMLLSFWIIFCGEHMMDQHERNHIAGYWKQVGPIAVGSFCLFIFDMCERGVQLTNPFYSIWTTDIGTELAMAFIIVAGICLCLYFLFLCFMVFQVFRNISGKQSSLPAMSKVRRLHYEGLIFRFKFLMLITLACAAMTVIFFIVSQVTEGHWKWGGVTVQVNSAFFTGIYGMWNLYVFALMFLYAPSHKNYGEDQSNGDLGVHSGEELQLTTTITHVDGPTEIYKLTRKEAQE

B1: 3×Flag-GPR177 (protein, UniProt Q5T9L3 1-541)
chain: T1 sequence

Legend:
[1] = biological target: T1, 3×Flag-GPR177; test: co-IP; anti-Flag M2 affinity gel, 2 mg total lysate of 3×Flag-GPR177 stable HeLa cells, 8 h at 4°C, washed three times with 50 mM Tris HCl pH 7.5, 150 mM NaCl, 1 mM EDTA, 1% Triton X-100, eluted with 3×Flag peptides; precipitates blotted for vesicular markers
[2] = biological target: GST-RAB8A (UniProt P61006); test: pull-down; GST or GST fusion proteins on glutathione-agarose beads incubated with 1 mg lysate of 3×Flag-GPR177 stable HeLa cells for 1 h at 4°C, washed with PBS with 1% Triton X-100; anti-Flag western blot; only the target purified
[3] = biological target: GST-CDC42 (UniProt P60953); test: as above

Row | Molecule | binding [1] | binding [2] | binding [3]
1 | RAB8A (from UniProt P61006 1-207) | binds | – | –
2 | B1 | – | binds | no binding
